Inconclusive results, whose numbers are uncertain, are shown with a selection of clear calls. Potencies beside an inconclusive call are fits to weak or partial responses and may not hold up. Activity calls are given as the source filed them. Calls come from the whole dose curve; as a rule, active = well fitted cell-killing curve with a large enough effect; inconclusive = small, poorly fitted or top-dose-only effect, or effect the other way; inactive = no such curve, though single readings can be large or run the other way.
Assay: Quantitative High-Throughput drug screen in 47 multiple myeloma cell lines against the NCATS MIPE library collection: KMS34_JCRB cell viability assay (AID 1918985); note: nearly all actives have a fitted effect of over 40% in size
Conditions: KMS34 myeloma viability, CellTiter-Glo ATP luminescence, 48 h; series mostly up to 45.8 µM
In short: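 Cells were exposed to library compounds for 48 hours, after which ATP was measured by CellTiter-Glo. Signal was taken as median relative luminescence units.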
Potency is the fitted concentration of half-maximal effect.

Row | Structure (SMILES) | Potency
1 | CC[C@]1(O)C[C@@H]2CN(CCc3c([nH]c4ccccc34)[C@@](C(=O)OC)(c3cc4c(cc3OC)N(C=O)[C@@H]3C45CCN4CC=C[C@](CC)([C@H]45)[C@@H](OC(C)=O)[C@]3(O)C(=O)OC)C2)C1 (stereo partly drawn) | active: 23.5 µM
2 | CCc1ccc(OCc2ccccc2C(=O)Nc2ccc3nc(C)cc(N)c3c2)cc1 | active: 7.43 µM
3 | COC(=O)C1=CO[C@@H](O)[C@@H]2C(CO)=CC[C@@H]12 | inconclusive: 16.6 µM [cytotoxic, partial curve, poor fit]
4 | C=C1C(=O)[C@@]23C(CC[C@@H]1[C@H]2O)[C@@]12CO[C@]3(O)[C@@H](O)[C@@H]1C(C)(C)CC[C@@H]2O (stereo partly drawn) | active: 1.05 µM
5 | O=C(O)c1ccccc1C(=O)Nc1ccc(-c2ccccc2)cc1 | inactive
6 | NC1CCC(Nc2nc(Nc3ccc(C(=O)N4CCCCC4)cc3)c3ncn(-c4cccc(F)c4)c3n2)CC1 (stereo not drawn) | inconclusive: 0.0105 µM [rising, full curve, poor fit]
7 | Cc1ccnc2c1NC(=O)c1cccnc1N2C1CC1 | inconclusive: 0.0833 µM [rising, full curve, poor fit]
8 | O=C(NCc1ccccc1)c1csc(Nc2ccncn2)n1 | active: 23.5 µM

Copied from above (2 entries):
Row | Structure (SMILES) | Potency
1 | CC[C@]1(O)C[C@@H]2CN(CCc3c([nH]c4ccccc34)[C@@](C(=O)OC)(c3cc4c(cc3OC)N(C=O)[C@@H]3C45CCN4CC=C[C@](CC)([C@H]45)[C@@H](OC(C)=O)[C@]3(O)C(=O)OC)C2)C1 (stereo partly drawn) | active: 23.5 µM
2 | CCc1ccc(OCc2ccccc2C(=O)Nc2ccc3nc(C)cc(N)c3c2)cc1 | active: 7.43 µM

From PubChem BioAssay (NCATS)
